Binding data for 1 substance are collected here from article PMC6949222.

By UniProt entry, the sequences of proteins in these tests, tags left out.
UniProt Q16539: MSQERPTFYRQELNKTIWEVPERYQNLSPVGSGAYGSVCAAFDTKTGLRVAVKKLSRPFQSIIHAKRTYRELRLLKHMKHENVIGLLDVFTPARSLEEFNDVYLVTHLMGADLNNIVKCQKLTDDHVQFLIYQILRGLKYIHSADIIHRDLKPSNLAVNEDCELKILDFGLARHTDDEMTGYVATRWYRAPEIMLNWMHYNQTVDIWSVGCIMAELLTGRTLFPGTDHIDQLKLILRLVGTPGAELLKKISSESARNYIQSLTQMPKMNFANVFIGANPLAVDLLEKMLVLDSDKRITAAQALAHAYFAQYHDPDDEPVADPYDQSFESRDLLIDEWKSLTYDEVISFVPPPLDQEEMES
UniProt Q15759: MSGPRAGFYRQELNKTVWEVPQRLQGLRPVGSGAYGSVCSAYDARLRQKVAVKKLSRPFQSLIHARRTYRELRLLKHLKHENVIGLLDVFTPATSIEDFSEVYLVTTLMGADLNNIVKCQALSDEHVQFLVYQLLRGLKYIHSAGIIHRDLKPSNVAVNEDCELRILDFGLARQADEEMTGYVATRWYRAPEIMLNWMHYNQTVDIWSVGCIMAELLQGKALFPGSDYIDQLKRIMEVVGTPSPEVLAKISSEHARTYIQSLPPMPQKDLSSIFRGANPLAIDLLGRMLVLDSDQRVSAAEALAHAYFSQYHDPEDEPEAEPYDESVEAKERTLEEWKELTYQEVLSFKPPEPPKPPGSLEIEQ
UniProt Q01105: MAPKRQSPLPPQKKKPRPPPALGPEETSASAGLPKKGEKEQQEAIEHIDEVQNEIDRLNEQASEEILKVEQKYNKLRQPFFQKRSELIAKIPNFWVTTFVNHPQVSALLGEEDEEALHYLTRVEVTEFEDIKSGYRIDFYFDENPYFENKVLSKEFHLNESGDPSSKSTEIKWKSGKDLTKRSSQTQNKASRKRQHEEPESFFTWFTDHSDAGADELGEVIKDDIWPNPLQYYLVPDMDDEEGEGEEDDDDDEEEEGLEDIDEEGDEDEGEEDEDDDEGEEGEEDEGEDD

Results are given in words; binding and its absence hold for the method and conditions named. Binding seen in cells or lysates may run through a third protein. Some results given as binding are weak or reduced against the parent protein; the word gives no strength.

Test [1] concerns the target p38α (human (endogenous in HL60)) (UniProt Q16539). Put plainly: co-IP; immunoprecipitation of endogenous SET, p38α and p38β with specific antibodies in HL60 and MOLM-13 cells, normal goat Ig as negative control; also HL60 cells treated with p38 inhibitors (Supplementary Fig. S4b).
Test [2] deals with protein kinase p38β (human (endogenous in HL60 and MOLM-13)) (UniProt Q15759). The description is as above.

Consider “SET oncoprotein (from UniProt Q01105 1-290)”, for which the binding result in test [1] and in test [2] was “binds” each time.
